PubChem BioAssay AID1259254 – NCATS – 2017
Here is a random part of about 59,000 reagents. Of all reagents, about 1,550 (2.6%) were called active. 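G2 share is only a proxy for re-replication; each gene was hit by three separate siRNAs, and active genes were retested.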 Reagents against one gene are numbered here. Not all columns of the deposit are shown. The record does not give: the amount of reagent.

Aim: 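Gene knock-downs that lead to re-replication, shown by excess G2 DNA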 (primary screen)
System: human HCT116 colorectal cancer cells
Knock-down reagent: single siRNA against human genes
Duration: 3 days
Detection: 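Imaged Hoechst DNA stain sorts each cell into a cycle phase by DNA amount; per plate, G2 fraction set to 0% for non-targeting and 100% for GMNN siRNA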
Direction: G2 robust z-score: higher = more G2 cells, more excess DNA replication
Rule for the call: 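Active siRNAs have a G2 robust z of 5 or more median absolute deviations over the median, which in these data means about 38% or higher of GMNN control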

no.	target gene	reagent no.	G2 robust z-score	call
1	PAH	1	-0.748	inactive
2	PAH	2	-0.471	inactive
3	PAH	3	-0.562	inactive
4	MARK1	1	-0.272	inactive
5	MARK1	2	-0.142	inactive
6	MARK1	3	-0.438	inactive
7	RNF122	1	-0.535	inactive
8	RNF122	2	0.143	inactive
9	RNF122	3	-0.143	inactive
10	LGALS8	1	-1.21	inactive
11	LGALS8	2	-1.25	inactive
12	LGALS8	3	-0.742	inactive
13	ZNF354C	1	-0.316	inactive
14	ZNF354C	2	-1.05	inactive
15	ZNF354C	3	0.234	inactive
16	XAGE5	1	0.161	inactive
17	XAGE5	2	-1.14	inactive
18	XAGE5	3	-0.569	inactive
19	TMEM165	1	-0.222	inactive
20	TMEM165	2	1.74	inactive
21	TMEM165	3	2.58	inactive
22	FAM90A3	1	0.556	inactive
23	FAM90A3	2	2.47	inactive
24	FAM90A3	3	-0.554	inactive
25	ALDH6A1	1	1.67	inactive
26	ALDH6A1	2	2.97	inactive
27	ALDH6A1	3	-1.34	inactive
28	UBE2V2	1	1.22	inactive
29	UBE2V2	2	3.7	inactive
30	UBE2V2	3	2	inactive
31	ITGAL	1	-0.999	inactive
32	ITGAL	2	1.07	inactive
33	ITGAL	3	2.3	inactive
34	SLC39A3	1	-0.01	inactive
35	SLC39A3	2	-0.938	inactive
36	SLC39A3	3	-0.254	inactive
37	RPL12	1	4.55	inactive
38	RPL12	2	2.64	inactive
39	RPL12	3	-0.354	inactive
40	CINP	1	-1.4	inactive
41	CINP	2	0.671	inactive
42	CINP	3	0.301	inactive

Targets listed so far whose target name starts with C or c:
target gene	reagent no.	G2 robust z-score	call
CINP	1	-1.4	inactive
CINP	2	0.671	inactive
CINP	3	0.301	inactive

Further reagents:
no.	target gene	reagent no.	G2 robust z-score	call
43	SCRT1	1	0.57	inactive
44	SCRT1	2	0.786	inactive
45	SCRT1	3	-0.891	inactive
46	TRPV6	1	-0.915	inactive
47	TRPV6	2	-1.32	inactive
48	TRPV6	3	-1.11	inactive
49	PSG5	1	5.02	active
50	PSG5	2	0.773	inactive
51	PSG5	3	0.247	inactive
52	BOK	1	7.36	active
53	BOK	2	1.46	inactive
54	BOK	3	-0.499	inactive
55	CCDC9B	1	0.316	inactive
56	CCDC9B	2	-0.498	inactive
57	CCDC9B	3	2.05	inactive
58	SAXO5	1	-0.0339	inactive
59	SAXO5	2	2.56	inactive
60	SAXO5	3	-0.908	inactive
61	CD2	1	-0.927	inactive
62	CD2	2	4.45	inactive
63	CD2	3	-1.75	inactive
64	NPL	1	-1.05	inactive
65	NPL	2	4.13	inactive
66	NPL	3	0.155	inactive
67	GP1BA	1	3.02	inactive
68	GP1BA	2	2.63	inactive
69	GP1BA	3	0.0345	inactive
